Amino acid sequences for entries named in this document (tags omitted).
UniProt O95071: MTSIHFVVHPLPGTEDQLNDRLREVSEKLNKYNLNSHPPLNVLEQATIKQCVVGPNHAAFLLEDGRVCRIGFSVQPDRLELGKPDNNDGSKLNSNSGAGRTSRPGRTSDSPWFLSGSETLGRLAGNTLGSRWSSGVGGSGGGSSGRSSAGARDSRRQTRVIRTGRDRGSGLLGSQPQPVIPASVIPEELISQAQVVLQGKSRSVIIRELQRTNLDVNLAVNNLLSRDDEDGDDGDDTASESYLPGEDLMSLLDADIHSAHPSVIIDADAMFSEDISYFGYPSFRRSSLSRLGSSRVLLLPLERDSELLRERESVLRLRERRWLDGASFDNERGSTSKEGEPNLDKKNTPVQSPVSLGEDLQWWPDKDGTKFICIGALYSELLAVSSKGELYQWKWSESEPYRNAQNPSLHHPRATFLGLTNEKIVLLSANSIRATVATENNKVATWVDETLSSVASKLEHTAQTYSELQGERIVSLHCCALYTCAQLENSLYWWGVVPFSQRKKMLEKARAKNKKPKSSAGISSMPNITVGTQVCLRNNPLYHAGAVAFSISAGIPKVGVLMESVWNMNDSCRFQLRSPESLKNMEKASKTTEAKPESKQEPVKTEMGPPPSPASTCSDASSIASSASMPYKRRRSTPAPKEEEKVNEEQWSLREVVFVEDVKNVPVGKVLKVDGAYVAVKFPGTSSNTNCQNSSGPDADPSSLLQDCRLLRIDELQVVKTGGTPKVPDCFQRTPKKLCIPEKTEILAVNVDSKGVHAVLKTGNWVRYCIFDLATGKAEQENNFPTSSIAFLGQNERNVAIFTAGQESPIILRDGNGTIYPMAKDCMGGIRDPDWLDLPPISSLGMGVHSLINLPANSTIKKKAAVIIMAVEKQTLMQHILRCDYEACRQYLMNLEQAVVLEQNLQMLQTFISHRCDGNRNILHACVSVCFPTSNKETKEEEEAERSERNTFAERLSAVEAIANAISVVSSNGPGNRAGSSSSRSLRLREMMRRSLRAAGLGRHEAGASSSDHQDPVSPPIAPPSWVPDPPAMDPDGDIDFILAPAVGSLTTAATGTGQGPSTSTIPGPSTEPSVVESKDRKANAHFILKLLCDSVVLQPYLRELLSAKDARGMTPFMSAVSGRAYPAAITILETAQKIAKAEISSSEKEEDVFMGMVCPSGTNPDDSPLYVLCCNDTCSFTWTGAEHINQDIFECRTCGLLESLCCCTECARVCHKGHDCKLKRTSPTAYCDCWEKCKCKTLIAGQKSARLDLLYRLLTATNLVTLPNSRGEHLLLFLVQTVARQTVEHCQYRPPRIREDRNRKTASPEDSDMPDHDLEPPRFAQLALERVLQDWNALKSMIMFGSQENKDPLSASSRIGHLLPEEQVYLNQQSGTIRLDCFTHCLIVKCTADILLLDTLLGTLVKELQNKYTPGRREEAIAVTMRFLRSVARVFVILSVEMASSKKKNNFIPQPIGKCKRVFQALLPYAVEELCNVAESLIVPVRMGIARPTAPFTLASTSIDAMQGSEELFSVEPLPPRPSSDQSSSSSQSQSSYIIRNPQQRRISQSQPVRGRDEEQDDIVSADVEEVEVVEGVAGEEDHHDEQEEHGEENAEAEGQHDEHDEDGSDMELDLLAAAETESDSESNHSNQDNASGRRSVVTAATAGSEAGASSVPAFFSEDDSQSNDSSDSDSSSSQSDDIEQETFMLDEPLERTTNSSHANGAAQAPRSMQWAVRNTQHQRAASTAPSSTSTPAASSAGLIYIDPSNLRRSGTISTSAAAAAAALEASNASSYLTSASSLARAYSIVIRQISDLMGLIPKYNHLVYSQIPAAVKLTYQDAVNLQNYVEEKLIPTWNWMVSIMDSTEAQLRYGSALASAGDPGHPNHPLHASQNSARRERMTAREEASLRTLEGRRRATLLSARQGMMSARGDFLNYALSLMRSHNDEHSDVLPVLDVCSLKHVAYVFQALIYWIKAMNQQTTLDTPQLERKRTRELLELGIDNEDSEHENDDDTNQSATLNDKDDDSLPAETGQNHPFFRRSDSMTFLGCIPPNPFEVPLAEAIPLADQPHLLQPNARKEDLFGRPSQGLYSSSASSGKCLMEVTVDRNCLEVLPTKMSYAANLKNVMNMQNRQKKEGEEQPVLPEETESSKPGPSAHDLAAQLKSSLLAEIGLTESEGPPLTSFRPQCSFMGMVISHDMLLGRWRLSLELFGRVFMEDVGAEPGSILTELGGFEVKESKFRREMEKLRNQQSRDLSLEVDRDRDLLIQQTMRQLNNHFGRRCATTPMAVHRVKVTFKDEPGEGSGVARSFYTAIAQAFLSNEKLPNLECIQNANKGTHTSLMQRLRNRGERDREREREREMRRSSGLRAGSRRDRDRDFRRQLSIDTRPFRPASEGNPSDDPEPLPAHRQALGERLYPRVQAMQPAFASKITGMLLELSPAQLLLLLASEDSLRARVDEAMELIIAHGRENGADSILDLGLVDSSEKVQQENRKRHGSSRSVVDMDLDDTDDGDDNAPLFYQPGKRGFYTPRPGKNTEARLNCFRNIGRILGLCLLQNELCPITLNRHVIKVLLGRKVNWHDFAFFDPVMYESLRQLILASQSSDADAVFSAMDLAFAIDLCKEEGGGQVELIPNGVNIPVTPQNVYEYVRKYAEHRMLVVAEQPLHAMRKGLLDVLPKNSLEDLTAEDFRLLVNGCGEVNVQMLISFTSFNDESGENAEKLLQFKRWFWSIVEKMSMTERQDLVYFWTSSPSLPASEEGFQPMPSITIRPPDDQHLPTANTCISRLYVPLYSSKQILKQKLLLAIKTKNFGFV

In paper PMC9472757:

Biological target: T1, Flag-ORF4b (MERS-CoV ORF4b protein, Flag-tagged) (MERS-CoV) (UniProt K9N643)
T1 sequence: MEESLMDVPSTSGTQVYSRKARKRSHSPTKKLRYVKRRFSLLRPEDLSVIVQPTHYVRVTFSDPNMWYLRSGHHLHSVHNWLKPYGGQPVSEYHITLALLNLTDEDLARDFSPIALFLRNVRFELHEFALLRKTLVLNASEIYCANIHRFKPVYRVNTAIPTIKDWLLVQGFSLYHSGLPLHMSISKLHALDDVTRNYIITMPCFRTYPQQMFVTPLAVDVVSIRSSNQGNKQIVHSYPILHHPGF
Test: affinity purification with mass spectrometry

“UBR5 (ubiquitin protein ligase E3 component N-recognin 5), endogenous (from UniProt O95071 1-2799) (enzyme)” was tested, and the binding was “binds”.

Results are given in words; binding and its absence hold for the method and conditions named. Binding seen in cells or lysates may run through a third protein. A yes stands for co-enrichment or nearness to the bait. Other partners may have been found. Sequences can lack the tags named with a protein.
